We go through three molecules from doi:10.1101/2022.03.04.482790.

For experiment [1], the target named is T1, NOT2 (subunit of the Drosophila CCR4-NOT core complex) (Drosophila) (UniProt Q94547).
T1 sequence: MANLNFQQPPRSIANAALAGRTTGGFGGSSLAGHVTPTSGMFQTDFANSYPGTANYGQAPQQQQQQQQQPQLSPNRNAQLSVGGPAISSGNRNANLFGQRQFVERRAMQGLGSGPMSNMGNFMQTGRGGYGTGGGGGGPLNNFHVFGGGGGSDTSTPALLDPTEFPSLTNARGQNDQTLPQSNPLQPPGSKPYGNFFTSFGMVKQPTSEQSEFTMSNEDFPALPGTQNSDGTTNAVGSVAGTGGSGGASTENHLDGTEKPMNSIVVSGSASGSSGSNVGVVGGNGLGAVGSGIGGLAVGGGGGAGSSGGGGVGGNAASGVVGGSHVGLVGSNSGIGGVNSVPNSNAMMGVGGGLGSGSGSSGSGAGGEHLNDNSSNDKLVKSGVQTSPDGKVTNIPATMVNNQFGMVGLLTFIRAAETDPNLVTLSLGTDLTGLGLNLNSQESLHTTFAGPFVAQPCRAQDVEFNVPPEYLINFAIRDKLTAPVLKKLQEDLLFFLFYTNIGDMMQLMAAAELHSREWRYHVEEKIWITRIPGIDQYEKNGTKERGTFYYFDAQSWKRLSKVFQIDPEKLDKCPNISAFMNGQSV
Description: ReLo.

Experiment [2] has as its target T1, NOT2 (subunit of the Drosophila CCR4-NOT core complex) (Drosophila). Description: ReLo. This is another data set of the same source.
The target in experiment [3] is T2, Drosophila Nanos (Drosophila) (UniProt P25724).
T2 sequence: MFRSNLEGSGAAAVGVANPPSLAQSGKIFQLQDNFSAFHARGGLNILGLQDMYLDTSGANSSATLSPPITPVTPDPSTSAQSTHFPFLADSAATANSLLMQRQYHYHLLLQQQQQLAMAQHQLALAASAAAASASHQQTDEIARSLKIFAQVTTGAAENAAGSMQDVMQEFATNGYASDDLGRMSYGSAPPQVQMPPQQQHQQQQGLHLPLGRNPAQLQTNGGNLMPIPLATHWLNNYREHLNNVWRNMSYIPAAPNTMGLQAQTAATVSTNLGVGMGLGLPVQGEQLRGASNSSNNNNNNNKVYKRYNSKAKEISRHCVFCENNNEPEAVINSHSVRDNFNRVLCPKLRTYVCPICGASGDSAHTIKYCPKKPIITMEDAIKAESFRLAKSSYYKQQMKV
Description: ReLo.

Experiment [4] concerns the target T3, Drosophila Cup (Drosophila) (UniProt Q9VMA3).
T3 sequence: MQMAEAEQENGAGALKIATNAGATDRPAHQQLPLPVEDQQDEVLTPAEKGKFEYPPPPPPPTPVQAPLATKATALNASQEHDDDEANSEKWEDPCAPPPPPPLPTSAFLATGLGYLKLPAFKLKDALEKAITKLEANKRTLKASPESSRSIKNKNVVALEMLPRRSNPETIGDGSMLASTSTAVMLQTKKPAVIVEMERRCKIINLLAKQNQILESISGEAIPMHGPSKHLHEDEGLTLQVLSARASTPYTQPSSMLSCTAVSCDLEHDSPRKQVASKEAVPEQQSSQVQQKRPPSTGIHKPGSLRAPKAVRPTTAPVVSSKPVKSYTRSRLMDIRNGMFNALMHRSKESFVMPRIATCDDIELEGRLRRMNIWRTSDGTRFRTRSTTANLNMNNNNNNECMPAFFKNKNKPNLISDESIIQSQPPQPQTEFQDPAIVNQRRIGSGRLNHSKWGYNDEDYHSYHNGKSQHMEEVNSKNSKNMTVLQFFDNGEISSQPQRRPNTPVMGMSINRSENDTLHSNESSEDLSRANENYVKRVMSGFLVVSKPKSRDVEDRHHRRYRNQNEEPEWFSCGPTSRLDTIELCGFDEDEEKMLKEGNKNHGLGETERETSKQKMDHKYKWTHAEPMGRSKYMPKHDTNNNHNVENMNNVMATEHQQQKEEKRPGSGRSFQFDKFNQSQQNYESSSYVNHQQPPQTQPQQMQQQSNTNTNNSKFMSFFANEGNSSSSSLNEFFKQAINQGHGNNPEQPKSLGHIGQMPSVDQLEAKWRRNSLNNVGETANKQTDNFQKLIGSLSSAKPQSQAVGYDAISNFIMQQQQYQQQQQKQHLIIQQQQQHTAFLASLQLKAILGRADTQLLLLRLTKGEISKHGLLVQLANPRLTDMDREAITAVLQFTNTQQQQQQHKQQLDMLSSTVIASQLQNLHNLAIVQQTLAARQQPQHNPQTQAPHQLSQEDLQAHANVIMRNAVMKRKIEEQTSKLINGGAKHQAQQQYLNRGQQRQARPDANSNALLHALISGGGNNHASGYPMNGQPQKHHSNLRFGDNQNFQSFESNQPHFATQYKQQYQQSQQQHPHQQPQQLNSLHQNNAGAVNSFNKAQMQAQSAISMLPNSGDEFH
As to the kind of experiment: ReLo.

Experiment [5] has as its target T2, Drosophila Nanos (Drosophila). Description: ReLo. The source holds these as a separate data set.
The target in experiment [6] is NOT3, split-ubiquitin yeast two-hybrid fusion (Drosophila). As to the kind of experiment: two-hybrid.

Read-outs that look alike come from different tables or passages of the source. These are yes or no findings as the source states them, for the method shown. For some of these results: Binding can be weak; no strength is given. For some of these results: Sequences can lack the tags named with a protein.

In the case of “CAF1 (subunit of the Drosophila CCR4-NOT core complex)”, the binding result in experiment [1] and in experiment [2] was “no binding” each time.
As for Bruno, the binding entry in experiment [3] is listed as “no binding (only with Cup coexpressed)”; in experiment [4], “binds”; in experiment [5], “binds”; in experiment [2] it was “no binding”.

B1: NOT2, split-ubiquitin yeast two-hybrid fusion (protein, UniProt Q94547 1-585)
chain: MANLNFQQPPRSIANAALAGRTTGGFGGSSLAGHVTPTSGMFQTDFANSYPGTANYGQAPQQQQQQQQQPQLSPNRNAQLSVGGPAISSGNRNANLFGQRQFVERRAMQGLGSGPMSNMGNFMQTGRGGYGTGGGGGGPLNNFHVFGGGGGSDTSTPALLDPTEFPSLTNARGQNDQTLPQSNPLQPPGSKPYGNFFTSFGMVKQPTSEQSEFTMSNEDFPALPGTQNSDGTTNAVGSVAGTGGSGGASTENHLDGTEKPMNSIVVSGSASGSSGSNVGVVGGNGLGAVGSGIGGLAVGGGGGAGSSGGGGVGGNAASGVVGGSHVGLVGSNSGIGGVNSVPNSNAMMGVGGGLGSGSGSSGSGAGGEHLNDNSSNDKLVKSGVQTSPDGKVTNIPATMVNNQFGMVGLLTFIRAAETDPNLVTLSLGTDLTGLGLNLNSQESLHTTFAGPFVAQPCRAQDVEFNVPPEYLINFAIRDKLTAPVLKKLQEDLLFFLFYTNIGDMMQLMAAAELHSREWRYHVEEKIWITRIPGIDQYEKNGTKERGTFYYFDAQSWKRLSKVFQIDPEKLDKCPNISAFMNGQSV
For B1, the binding result in experiment [6] is given as “binds”.
